Assay [1] addresses T1, GST-SET8 N-terminal region (1-191 amino acids) (UniProt Q9NQR1).
T1 sequence: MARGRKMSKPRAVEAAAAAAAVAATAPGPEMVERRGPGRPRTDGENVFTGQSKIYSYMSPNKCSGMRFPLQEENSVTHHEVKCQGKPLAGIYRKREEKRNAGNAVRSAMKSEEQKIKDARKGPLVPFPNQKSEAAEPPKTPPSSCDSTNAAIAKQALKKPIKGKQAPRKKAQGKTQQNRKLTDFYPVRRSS
In words: pull-down; GST pull-down: lysates of transfected cells (48 h; TNTE buffer: 50 mM Tris-HCl pH 7.5, 150 mM NaCl, 1 mM EDTA, 0.5% Triton X-100) incubated with GST fusion proteins, anti-FLAG immunoblot; only the target purified. (In general: A western blot detects proteins with antibodies after separation by electrophoresis.)

Chains of the proteins cited; added tags and fusions are not shown.
UniProt P84022: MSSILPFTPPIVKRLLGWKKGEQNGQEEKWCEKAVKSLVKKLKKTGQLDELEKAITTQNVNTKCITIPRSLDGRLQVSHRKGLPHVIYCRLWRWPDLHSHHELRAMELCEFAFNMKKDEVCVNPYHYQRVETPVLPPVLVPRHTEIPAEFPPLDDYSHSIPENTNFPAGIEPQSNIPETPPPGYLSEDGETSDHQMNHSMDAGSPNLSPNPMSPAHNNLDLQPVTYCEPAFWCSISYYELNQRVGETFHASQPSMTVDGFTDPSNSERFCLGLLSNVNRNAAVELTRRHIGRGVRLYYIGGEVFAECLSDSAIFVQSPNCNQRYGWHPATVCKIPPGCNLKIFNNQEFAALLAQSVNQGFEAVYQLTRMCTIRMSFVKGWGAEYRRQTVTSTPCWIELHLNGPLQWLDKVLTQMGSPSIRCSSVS
UniProt Q15796: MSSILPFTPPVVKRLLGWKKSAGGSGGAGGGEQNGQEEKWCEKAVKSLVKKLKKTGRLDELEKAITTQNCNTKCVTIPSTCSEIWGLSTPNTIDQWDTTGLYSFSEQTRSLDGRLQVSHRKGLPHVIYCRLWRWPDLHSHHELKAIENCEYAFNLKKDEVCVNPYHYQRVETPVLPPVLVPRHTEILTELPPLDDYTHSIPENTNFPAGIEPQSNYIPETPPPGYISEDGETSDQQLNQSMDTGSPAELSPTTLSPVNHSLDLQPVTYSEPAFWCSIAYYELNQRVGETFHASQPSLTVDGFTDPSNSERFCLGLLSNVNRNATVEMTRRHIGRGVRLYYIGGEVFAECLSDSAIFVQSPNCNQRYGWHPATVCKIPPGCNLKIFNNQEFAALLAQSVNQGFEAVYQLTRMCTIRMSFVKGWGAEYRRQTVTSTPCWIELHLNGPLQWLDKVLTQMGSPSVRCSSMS
UniProt Q09472: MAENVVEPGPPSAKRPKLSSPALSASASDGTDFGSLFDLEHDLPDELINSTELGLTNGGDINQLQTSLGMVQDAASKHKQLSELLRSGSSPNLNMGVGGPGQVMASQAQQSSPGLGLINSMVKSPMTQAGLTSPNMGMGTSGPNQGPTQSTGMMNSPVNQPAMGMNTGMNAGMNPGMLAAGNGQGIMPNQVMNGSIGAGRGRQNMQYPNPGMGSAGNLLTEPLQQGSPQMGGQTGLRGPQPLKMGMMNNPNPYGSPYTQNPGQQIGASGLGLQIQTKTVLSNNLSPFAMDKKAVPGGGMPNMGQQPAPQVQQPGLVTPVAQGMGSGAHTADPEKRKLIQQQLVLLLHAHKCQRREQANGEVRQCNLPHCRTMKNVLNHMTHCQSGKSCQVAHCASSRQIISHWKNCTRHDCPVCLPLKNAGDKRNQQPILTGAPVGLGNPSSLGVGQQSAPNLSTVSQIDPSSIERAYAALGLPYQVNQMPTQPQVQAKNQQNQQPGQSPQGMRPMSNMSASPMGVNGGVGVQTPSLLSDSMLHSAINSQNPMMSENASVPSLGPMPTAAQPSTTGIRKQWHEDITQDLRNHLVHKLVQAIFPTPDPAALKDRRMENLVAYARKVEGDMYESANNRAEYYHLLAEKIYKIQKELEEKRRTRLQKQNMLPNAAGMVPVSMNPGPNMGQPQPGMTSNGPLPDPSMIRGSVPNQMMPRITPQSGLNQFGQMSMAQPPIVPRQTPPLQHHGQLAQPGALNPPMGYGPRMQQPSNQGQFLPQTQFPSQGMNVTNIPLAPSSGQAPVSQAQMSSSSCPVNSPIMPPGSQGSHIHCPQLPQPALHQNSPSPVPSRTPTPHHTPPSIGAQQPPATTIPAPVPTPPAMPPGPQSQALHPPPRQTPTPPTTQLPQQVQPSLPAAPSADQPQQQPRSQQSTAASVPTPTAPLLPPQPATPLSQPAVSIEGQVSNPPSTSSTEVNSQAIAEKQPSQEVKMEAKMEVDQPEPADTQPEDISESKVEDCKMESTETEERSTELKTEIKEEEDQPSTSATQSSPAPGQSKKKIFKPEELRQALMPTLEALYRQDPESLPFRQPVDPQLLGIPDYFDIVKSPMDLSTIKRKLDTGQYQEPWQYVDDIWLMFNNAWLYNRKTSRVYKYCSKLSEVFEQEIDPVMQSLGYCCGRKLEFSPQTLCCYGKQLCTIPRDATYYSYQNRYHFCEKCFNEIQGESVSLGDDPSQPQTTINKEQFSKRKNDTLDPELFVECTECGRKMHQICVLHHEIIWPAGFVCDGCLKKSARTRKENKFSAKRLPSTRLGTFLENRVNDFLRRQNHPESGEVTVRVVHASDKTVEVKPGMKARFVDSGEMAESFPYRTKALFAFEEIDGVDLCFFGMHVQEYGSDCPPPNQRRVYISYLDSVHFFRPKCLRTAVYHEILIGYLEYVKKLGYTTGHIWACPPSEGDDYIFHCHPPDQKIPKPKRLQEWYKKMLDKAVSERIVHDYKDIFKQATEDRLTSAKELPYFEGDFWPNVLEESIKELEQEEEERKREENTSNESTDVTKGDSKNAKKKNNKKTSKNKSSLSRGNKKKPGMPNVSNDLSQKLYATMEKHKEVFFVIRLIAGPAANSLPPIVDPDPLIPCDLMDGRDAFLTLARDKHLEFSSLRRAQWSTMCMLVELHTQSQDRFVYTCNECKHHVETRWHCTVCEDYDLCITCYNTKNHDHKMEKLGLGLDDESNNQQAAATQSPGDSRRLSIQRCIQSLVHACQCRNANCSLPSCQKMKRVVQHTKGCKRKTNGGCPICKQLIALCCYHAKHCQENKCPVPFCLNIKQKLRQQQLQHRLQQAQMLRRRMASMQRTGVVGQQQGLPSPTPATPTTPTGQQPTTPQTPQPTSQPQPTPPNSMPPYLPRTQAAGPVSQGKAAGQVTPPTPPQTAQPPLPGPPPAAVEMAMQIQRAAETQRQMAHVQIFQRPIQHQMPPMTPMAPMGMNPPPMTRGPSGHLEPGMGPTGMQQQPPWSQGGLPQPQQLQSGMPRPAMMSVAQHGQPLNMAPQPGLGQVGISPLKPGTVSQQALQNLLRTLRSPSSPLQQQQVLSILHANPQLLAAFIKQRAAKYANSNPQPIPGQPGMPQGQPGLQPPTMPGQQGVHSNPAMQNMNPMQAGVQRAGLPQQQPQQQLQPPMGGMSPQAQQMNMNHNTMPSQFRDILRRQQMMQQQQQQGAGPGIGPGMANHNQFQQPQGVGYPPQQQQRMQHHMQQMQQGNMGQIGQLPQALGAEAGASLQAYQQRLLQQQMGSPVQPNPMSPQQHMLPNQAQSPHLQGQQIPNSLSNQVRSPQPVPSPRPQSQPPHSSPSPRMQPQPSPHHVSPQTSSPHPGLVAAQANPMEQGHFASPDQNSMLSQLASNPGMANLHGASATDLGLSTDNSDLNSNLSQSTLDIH

For the next assay, the target named is FLAG-Smad3 (HEK293) (UniProt P84022). The assay can be described thus: co-IP; HEK293 cells transfected with the indicated constructs, with or without SET8; after 24 h FLAG-Smad3 immunoprecipitated with anti-FLAG antibody, immunoblot.
Assay [2] has as its target endogenous Smad3 (human (endogenous in HepG2)) (UniProt P84022). In words: co-IP; endogenous proteins; HepG2 cells with or without 100 pM TGF-β (30 min, 1.5 h); lysates immunoprecipitated with anti-Smad2/3 antibody, immunoblot.
The target in assay [3] is endogenous Smad2 (human (endogenous in HepG2)) (UniProt Q15796). The description is as above.

No constants are given. Whether binding was seen depends on the method and setting. Binding seen in cells or lysates may run through a third protein. Some entries that bind do so weakly or less than the wild type. For some of these results: Tags and fused reporters may be left off the sequences shown.

Turning to “FLAG-Smad3 (HEK293) (from UniProt P84022 1-425)”, the binding result in assay [1] is recorded as “binds”.

Take “p300 (from UniProt Q09472 1-2414) (enzyme)”: the binding entry in the assay with FLAG-Smad3 (HEK293) is reported as “binds”.

B1: endogenous SET8 (enzyme, UniProt Q9NQR1 1-393)
chain: MGEGGAAAALVAAAAAAAAAAAAVVAGQRRRRLGRRARCHGPGRAAGGKMSKPCAVEAAAAAVAATAPGPEMVERRGPGRPRTDGENVFTGQSKIYSYMSPNKCSGMRFPLQEENSVTHHEVKCQGKPLAGIYRKREEKRNAGNAVRSAMKSEEQKIKDARKGPLVPFPNQKSEAAEPPKTPPSSCDSTNAAIAKQALKKPIKGKQAPRKKAQGKTQQNRKLTDFYPVRRSSRKSKAELQSEERKRIDELIESGKEEGMKIDLIDGKGRGVIATKQFSRGDFVVEYHGDLIEITDAKKREALYAQDPSTGCYMYYFQYLSKTYCVDATRETNRLGRLINHSKCGNCQTKLHDIDGVPHLILIASRDIAAGEELLYDYGDRSKASIEAHPWLKH
Turning to B1, the binding entry in assay [2] and in assay [3] was “binds” each time.

These data come from article PMC10739863.
